Source: paper PMC4031514
These are yes or no findings as the source states them, for the method shown. In cells and extracts the contact can be indirect. Some binding calls cover weakened binding; strength is not graded here. For some assays here: Tags and fused reporters may be left off the sequences shown.

The chains behind the UniProt entries cited, without tags or fusion partners. Residues count along the entry.
UniProt Q8IXI2: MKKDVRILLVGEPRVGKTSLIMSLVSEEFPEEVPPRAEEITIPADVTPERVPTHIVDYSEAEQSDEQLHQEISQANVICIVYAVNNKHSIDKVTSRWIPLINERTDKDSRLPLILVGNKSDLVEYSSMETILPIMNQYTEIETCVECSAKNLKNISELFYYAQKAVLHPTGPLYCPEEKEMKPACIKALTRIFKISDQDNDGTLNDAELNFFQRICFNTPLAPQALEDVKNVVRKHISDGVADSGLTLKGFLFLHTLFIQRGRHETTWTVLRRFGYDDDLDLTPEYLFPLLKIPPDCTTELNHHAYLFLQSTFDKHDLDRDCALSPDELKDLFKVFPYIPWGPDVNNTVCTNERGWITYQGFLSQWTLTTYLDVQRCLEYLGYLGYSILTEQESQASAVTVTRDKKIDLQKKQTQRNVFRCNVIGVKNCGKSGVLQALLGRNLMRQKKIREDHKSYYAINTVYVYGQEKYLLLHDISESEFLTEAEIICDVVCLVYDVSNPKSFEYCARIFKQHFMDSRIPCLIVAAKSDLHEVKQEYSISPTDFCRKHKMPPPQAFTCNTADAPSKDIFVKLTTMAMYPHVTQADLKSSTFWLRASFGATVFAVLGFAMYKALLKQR
UniProt Q9BXM7, residues 78-581: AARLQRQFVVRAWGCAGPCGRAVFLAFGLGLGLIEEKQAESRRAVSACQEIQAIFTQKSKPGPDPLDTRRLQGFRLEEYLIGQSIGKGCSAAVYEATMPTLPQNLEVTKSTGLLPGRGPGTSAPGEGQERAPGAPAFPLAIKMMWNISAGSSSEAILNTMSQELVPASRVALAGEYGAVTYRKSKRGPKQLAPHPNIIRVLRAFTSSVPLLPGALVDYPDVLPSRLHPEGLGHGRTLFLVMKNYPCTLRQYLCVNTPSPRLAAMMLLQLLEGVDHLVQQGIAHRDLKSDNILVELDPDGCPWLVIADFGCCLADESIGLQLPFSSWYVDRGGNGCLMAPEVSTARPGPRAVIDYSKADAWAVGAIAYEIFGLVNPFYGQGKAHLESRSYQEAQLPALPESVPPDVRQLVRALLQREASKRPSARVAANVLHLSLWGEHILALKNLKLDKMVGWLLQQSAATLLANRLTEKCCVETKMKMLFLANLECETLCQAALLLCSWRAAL

Legend:
GFP-TRAK1 (mouse) = biological target: T1, GFP-TRAK1 (mouse) (UniProt Q6PD31); test: co-IP; coimmunopurification of mycMiro1 and GFP-TRAK1 from transfected cells, untreated or treated with 10 uM FCCP, 1 h; GFP-TRAP beads per the methods; lysis in 50 mM Tris pH 7.4, 150 mM NaCl, 1 mM EDTA, 0.5% Triton X-100; western blot, densitometry
T1 sequence: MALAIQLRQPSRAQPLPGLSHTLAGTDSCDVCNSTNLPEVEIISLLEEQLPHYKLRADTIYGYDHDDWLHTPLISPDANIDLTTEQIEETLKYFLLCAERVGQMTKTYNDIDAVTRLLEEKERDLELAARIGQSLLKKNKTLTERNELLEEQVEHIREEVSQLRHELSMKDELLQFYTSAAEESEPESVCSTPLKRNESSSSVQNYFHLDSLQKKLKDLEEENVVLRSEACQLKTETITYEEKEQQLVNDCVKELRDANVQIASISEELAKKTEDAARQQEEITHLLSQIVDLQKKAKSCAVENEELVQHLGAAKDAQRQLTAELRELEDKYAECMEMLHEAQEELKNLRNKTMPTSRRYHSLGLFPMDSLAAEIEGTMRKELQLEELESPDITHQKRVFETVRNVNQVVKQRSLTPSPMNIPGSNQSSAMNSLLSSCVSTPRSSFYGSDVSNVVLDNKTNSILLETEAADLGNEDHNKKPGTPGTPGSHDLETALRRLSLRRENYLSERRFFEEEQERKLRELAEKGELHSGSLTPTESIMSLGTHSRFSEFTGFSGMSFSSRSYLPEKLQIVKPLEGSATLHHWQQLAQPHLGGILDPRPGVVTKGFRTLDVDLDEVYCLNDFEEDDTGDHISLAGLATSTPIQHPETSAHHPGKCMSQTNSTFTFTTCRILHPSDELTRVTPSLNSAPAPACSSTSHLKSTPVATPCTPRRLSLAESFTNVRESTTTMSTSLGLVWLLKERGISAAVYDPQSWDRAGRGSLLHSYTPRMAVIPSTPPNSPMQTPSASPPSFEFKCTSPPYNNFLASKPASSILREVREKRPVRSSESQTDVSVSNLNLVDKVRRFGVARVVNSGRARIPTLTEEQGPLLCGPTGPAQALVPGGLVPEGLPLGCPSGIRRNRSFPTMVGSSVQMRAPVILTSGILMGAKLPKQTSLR

GFP-tagged Miro1 = GFP-tagged Miro1 (UniProt Q8IXI2); test: co-IP; GFP-TRAP beads capture GFP-Miro1 from lysates of SH-SY5Y cells stably overexpressing FLAG-Parkin and transfected with GFP-Miro1 and PINK1-myc; cells untreated or treated with 10 uM FCCP, 1 h; lysis in 50 mM Tris pH 7.4, 150 mM NaCl, 1 mM EDTA, 0.5% Triton X-100; western blot

binding (GFP-TRAK1 (mouse)) | binding (GFP-tagged Miro1) | Substance
binds |  | Myc-tagged Miro1 (from UniProt Q8IXI2 1-618)
 | binds | Myc-tagged PINK1 (from UniProt Q9BXM7 78-581)
